{
  "source": "the supplement of paper PMC8728848",
  "experiment_in_all_cases": "glycan array binding signal (z-score within array); higher = stronger binding",
  "settings_in_all_cases": "glycan notation: IUPAC condensed, linker removed",
  "key": {"[1]": {"biological_target": "Gal3S6S(b1-4)GlcNAc", "in_short": "(§1)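 Negative Z-scores can be read as non-binding. The Z-score is calculated within each array and then averaged across arrays of one protein sequence at different concentrations or buffers and across linkers. Arrays, 3228 in all, were curated from the Consortium for Functional Glycomics database and kept only where the protein sequence was available.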"}, "[2]": {"biological_target": "Gal3S6S(b1-4)GlcNAc6S", "in_short": "as §1"}, "[3]": {"biological_target": "Gal4S(b1-4)GlcNAc", "in_short": "as §1"}, "[4]": {"biological_target": "Gal4S6S(b1-4)GlcNAc", "in_short": "as §1"}, "[5]": {"biological_target": "Gal6P(b1-4)GlcNAc", "in_short": "as §1"}, "[6]": {"biological_target": "Gal6S(b1-3)GlcNAc", "in_short": "as §1"}, "[7]": {"biological_target": "Gal6S(b1-3)GlcNAc6S", "in_short": "as §1"}, "[8]": {"biological_target": "Gal6S(b1-4)Glc", "in_short": "as §1"}, "[9]": {"biological_target": "Gal6S(b1-4)Glc6S", "in_short": "as §1"}, "[10]": {"biological_target": "Gal6S(b1-4)GlcNAc", "in_short": "as §1"}, "[11]": {"biological_target": "Gal6S(b1-4)GlcNAc6S", "in_short": "as §1"}, "[12]": {"biological_target": "GalNAc(a1-3)Gal", "in_short": "as §1"}, "[13]": {"biological_target": "GalNAc(a1-3)GalNAc", "in_short": "as §1"}, "[14]": {"biological_target": "GalNAc(a1-3)GalNAc(b1-3)Gal(a1-4)Gal(b1-4)Glc", "in_short": "as §1"}, "[15]": {"biological_target": "GalNAc(a1-3)GalNAc(b1-3)Gal(a1-4)Gal(b1-4)GlcNAc", "in_short": "as §1"}, "[16]": {"biological_target": "GalNAc(b1-3)Gal", "in_short": "as §1"}, "[17]": {"biological_target": "GalNAc(b1-3)Gal(a1-4)Gal(b1-4)GlcNAc", "in_short": "as §1"}, "[18]": {"biological_target": "GalNAc(b1-3)Gal(a1-4)Gal(b1-4)GlcNAc(b1-3)Gal(b1-4)Glc", "in_short": "as §1"}, "[19]": {"biological_target": "GalNAc(b1-3)Gal(a1-6)Gal(b1-4)Glc", "in_short": "as §1"}, "[20]": {"biological_target": "GalNAc(b1-3)GalNAc", "in_short": "as §1"}, "[21]": {"biological_target": "GalNAc(b1-3)GlcNAc", "in_short": "as §1"}, "[22]": {"biological_target": "GalNAc(b1-4)Gal(b1-4)Glc", "in_short": "as §1"}, "[23]": {"biological_target": "GalNAc(b1-4)GlcNAc", "in_short": "as §1"}, "[24]": {"biological_target": "GalNAc(b1-4)GlcNAc(b1-2)Man", "in_short": "as §1"}, "[25]": {"biological_target": "GalNAc(b1-4)GlcNAc(b1-2)Man(a1-3)[GalNAc(b1-4)GlcNAc(b1-2)Man(a1-6)]Man(b1-4)GlcNAc(b1-4)GlcNAc", "in_short": "as §1"}, "[26]": {"biological_target": "GalNAc(b1-4)GlcNAc(b1-3)GalNAc(b1-4)GlcNAc", "in_short": "as §1"}, "[27]": {"biological_target": "GalNAc(b1-4)GlcNAc6S", "in_short": "as §1"}, "[28]": {"biological_target": "GalNAc(b1-6)GalNAc", "in_short": "as §1"}, "[29]": {"biological_target": "GalNAc3S(b1-4)GlcNAc", "in_short": "as §1"}, "[30]": {"biological_target": "GalNAc3S(b1-4)GlcNAc3S", "in_short": "as §1"}, "[31]": {"biological_target": "GalNAc3S(b1-4)[Fuc(a1-3)]GlcNAc", "in_short": "as §1"}, "[32]": {"biological_target": "GalNAc4S6S(b1-4)GlcNAc", "in_short": "as §1"}, "[33]": {"biological_target": "GalNAc6S(b1-4)GlcNAc", "in_short": "as §1"}, "[34]": {"biological_target": "Glc(a1-4)Glc", "in_short": "as §1"}, "[35]": {"biological_target": "Glc(a1-4)Glc(a1-4)Glc(a1-4)Glc", "in_short": "as §1"}, "[36]": {"biological_target": "Glc(a1-6)Glc(a1-6)Glc", "in_short": "as §1"}, "[37]": {"biological_target": "Glc(a1-6)Glc(a1-6)Glc(a1-6)Glc", "in_short": "as §1"}, "[38]": {"biological_target": "Glc(b1-4)Glc", "in_short": "as §1"}},
  "note": "This is one part of the list.",
  "data": [
    {"binder": "Aap brpt (Staphylococcus epidermidis) (protein) VDGDPITSTEEIPFDKKREFDPNLAPGTEKVVQKGEPGTKTITTPTTKNPLTGEKVGEGEPTEKITKQPVDEIVHYGGEEIKTGHKDEFDPNAPKGSQTTQPGKPGVKNPDTGEVVTPPVDDVTKYGPVDGDPITSTEEIPFDKKREFDPNLAPGTEKVVQKGEPGTKTITTPTTKNPLTGEKVGEGEPTEKITKQPVDEIVHYGGEEIKPGHKDEFDPNAPKGSQEDVPGKPGVKNPDTGEVVTPPVDDVTKYGPVDGDSITSTEEIPFDKKREFDPNLAPGTEKVVQKGEPGTKTITTPTTKNPLTGEKVGEGEPTEKITKQPVDEIVHYGGEQIPQGHKDEFDPNAPVDSKTEVPGKPGVKNPDTGEVVTPPVDDVTKYGPVDGDSITSTEEIPFDKKREFDPNLAPGTEKVVQKGEPGTKTITTPTTKNPLTGEKVGEGKSTEKVTKQPVDEIVEYGPTK", "values": [
      {"measurement": "glycan array binding signal (z-score)", "setting": "[1]", "value": 0.723},
      {"measurement": "glycan array binding signal (z-score)", "setting": "[2]", "value": 1.29},
      {"measurement": "glycan array binding signal (z-score)", "setting": "[3]", "value": -0.773},
      {"measurement": "glycan array binding signal (z-score)", "setting": "[4]", "value": 0.138},
      {"measurement": "glycan array binding signal (z-score)", "setting": "[5]", "value": -0.135},
      {"measurement": "glycan array binding signal (z-score)", "setting": "[6]", "value": -0.868},
      {"measurement": "glycan array binding signal (z-score)", "setting": "[7]", "value": 0.052},
      {"measurement": "glycan array binding signal (z-score)", "setting": "[8]", "value": 0.182},
      {"measurement": "glycan array binding signal (z-score)", "setting": "[9]", "value": -1.5},
      {"measurement": "glycan array binding signal (z-score)", "setting": "[10]", "value": -0.551},
      {"measurement": "glycan array binding signal (z-score)", "setting": "[11]", "value": 0.862},
      {"measurement": "glycan array binding signal (z-score)", "setting": "[12]", "value": 0.612},
      {"measurement": "glycan array binding signal (z-score)", "setting": "[13]", "value": 1.13},
      {"measurement": "glycan array binding signal (z-score)", "setting": "[14]", "value": 0.712},
      {"measurement": "glycan array binding signal (z-score)", "setting": "[15]", "value": 0.106},
      {"measurement": "glycan array binding signal (z-score)", "setting": "[16]", "value": 0.326},
      {"measurement": "glycan array binding signal (z-score)", "setting": "[17]", "value": 1.25},
      {"measurement": "glycan array binding signal (z-score)", "setting": "[18]", "value": 0.66},
      {"measurement": "glycan array binding signal (z-score)", "setting": "[19]", "value": -0.619},
      {"measurement": "glycan array binding signal (z-score)", "setting": "[20]", "value": 0.52},
      {"measurement": "glycan array binding signal (z-score)", "setting": "[21]", "value": 0.583},
      {"measurement": "glycan array binding signal (z-score)", "setting": "[22]", "value": 0.726},
      {"measurement": "glycan array binding signal (z-score)", "setting": "[23]", "value": 1.21},
      {"measurement": "glycan array binding signal (z-score)", "setting": "[24]", "value": -2.06},
      {"measurement": "glycan array binding signal (z-score)", "setting": "[25]", "value": -0.761},
      {"measurement": "glycan array binding signal (z-score)", "setting": "[26]", "value": -1.73},
      {"measurement": "glycan array binding signal (z-score)", "setting": "[27]", "value": 0.443},
      {"measurement": "glycan array binding signal (z-score)", "setting": "[28]", "value": -0.433},
      {"measurement": "glycan array binding signal (z-score)", "setting": "[29]", "value": 0.056},
      {"measurement": "glycan array binding signal (z-score)", "setting": "[30]", "value": -0.264},
      {"measurement": "glycan array binding signal (z-score)", "setting": "[31]", "value": 0.52},
      {"measurement": "glycan array binding signal (z-score)", "setting": "[32]", "value": 1.49},
      {"measurement": "glycan array binding signal (z-score)", "setting": "[33]", "value": 1.25},
      {"measurement": "glycan array binding signal (z-score)", "setting": "[34]", "value": -1.07},
      {"measurement": "glycan array binding signal (z-score)", "setting": "[35]", "value": 1.83},
      {"measurement": "glycan array binding signal (z-score)", "setting": "[36]", "value": 0.623},
      {"measurement": "glycan array binding signal (z-score)", "setting": "[37]", "value": -1.53},
      {"measurement": "glycan array binding signal (z-score)", "setting": "[38]", "value": -1.47}
    ]}
  ]
}
